Among the data in paper PMC9740361 are binding values, retold here.

Protein sequences, listed by entry. Tags and fused reporters are not part of them.
UniProt P35579: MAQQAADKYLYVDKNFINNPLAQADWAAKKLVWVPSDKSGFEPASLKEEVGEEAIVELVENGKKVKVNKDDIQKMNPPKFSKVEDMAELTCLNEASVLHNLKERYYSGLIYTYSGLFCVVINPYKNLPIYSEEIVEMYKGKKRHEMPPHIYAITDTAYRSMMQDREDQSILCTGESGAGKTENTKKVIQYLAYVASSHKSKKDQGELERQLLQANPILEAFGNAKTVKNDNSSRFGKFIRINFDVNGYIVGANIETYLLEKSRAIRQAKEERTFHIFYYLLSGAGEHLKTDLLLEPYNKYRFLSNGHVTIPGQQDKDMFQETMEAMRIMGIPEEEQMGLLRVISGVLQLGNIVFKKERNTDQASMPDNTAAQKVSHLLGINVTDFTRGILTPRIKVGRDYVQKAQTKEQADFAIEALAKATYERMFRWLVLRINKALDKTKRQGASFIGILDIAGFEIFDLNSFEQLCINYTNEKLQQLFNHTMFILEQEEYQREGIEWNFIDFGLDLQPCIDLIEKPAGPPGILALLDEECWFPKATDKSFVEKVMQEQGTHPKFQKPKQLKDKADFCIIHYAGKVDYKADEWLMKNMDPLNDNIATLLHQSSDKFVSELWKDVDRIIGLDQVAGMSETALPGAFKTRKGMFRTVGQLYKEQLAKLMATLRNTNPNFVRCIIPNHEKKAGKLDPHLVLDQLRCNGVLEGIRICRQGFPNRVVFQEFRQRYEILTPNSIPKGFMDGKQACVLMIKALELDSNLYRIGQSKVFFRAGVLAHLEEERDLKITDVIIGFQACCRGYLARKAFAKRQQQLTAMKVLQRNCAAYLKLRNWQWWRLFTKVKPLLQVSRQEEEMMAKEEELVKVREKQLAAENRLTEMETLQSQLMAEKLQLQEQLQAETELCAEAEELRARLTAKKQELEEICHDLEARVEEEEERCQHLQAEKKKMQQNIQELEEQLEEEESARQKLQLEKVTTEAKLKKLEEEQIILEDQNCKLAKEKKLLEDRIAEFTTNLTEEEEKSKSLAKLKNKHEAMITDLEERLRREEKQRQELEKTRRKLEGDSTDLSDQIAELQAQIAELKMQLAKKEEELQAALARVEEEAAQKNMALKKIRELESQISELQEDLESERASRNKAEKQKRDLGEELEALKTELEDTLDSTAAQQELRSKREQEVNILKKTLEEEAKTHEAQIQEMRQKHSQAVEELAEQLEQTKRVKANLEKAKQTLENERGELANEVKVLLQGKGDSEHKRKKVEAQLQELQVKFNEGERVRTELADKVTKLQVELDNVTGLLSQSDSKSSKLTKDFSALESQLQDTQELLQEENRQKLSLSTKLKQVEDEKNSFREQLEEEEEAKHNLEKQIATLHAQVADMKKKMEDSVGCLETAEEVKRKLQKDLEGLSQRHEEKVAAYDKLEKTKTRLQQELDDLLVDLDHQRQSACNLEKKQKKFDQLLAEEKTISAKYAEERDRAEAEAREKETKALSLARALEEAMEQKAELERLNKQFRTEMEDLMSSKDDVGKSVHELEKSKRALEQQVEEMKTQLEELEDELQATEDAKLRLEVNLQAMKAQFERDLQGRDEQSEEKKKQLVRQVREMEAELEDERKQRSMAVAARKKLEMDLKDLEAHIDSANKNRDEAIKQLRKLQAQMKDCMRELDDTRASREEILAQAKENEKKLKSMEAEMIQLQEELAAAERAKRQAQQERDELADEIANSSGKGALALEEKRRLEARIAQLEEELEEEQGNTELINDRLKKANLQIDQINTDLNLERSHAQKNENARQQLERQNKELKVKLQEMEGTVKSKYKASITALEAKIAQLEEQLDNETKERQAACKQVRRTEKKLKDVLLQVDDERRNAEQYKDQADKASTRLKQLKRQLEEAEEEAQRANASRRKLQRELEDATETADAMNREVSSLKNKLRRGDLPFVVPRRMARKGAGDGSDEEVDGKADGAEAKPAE

Results are given in words; binding and its absence hold for the method and conditions named. Binding seen in cells or lysates may run through a third protein. Some results given as binding are weak or reduced against the parent protein; the word gives no strength. Where a sequence is shown, tags or fusion partners need not be part of it.

The target in this test is T1, Nucleosome assembly protein 1-like 5 (NAP1L5), Flag-tagged (human) (UniProt Q96NT1).
T1 sequence: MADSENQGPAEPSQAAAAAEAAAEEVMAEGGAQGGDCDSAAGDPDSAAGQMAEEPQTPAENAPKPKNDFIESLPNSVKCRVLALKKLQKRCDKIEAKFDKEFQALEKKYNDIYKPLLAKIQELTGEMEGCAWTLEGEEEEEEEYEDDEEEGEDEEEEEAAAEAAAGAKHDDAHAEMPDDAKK
The test is described as follows: co-IP; cells lysed in low-salt lysis buffer, 4°C; anti-Flag or anti-IgG antibody overnight at 4°C, protein A/G beads, washed in TBST 3 times; Western blotting.

Turning to “MYH9 (nonmuscle myosin, NMIIA) (from UniProt P35579 1-1960)”, the binding entry is on record as “binds”.
